PubChem BioAssay AID1159578 – Peter MacCallum Cancer Centre, 2015
The deposit covers about 18,000 reagents; shown is a part drawn at random. About 1,030 of them (5.7%) count as active. 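Inactive calls also include pools with fewer than 3300 nuclei, whose migration was not assessed.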 Raw values vary from plate to plate and are shown uncorrected. A number with no mark means an inactive call. Reagent sequences are not shown.

Assay: 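siRNA pools altering how lymphatic endothelial cells close a scratch wound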 (primary screen)
System: human lymphatic endothelial cells
Reagent: siRNA pool against human genes, 40 nM
Timing: 48 h after transfection
Detection: 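Cells stained with dye and imaged after a scratch; covered wound area and nuclei counted, duplicates averaged, migration set against mock wells and turned into a robust z-score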
Scale: migration robust z-score: higher = faster migration into the scratch; migration relative to mock: higher = more scratch area covered than mock; nuclei per well: higher = more cells in the well
Call rule: 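Pools averaging fewer than 3300 nuclei are never called; remaining pools count as changed when migration robust z lies outside -2 to 2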
Calls: active = migration changed; inactive = no migration change, or too few cells

target gene | migration robust z-score | migration class with cell-count check | migration relative to mock | nuclei per well, duplicate mean
RPL14 | -0.38 | migration z between -2 and 2; enough cells | 0.78 | 3902
GRB10 | 2.68 (active) | migration z above 2; enough cells | 1.57 | 6298
TRAPPC14 | 0.23 | migration z between -2 and 2; enough cells | 0.94 | 4350
CCDC126 | -1.24 | migration z between -2 and 2; enough cells | 0.56 | 5430
SPACDR | -0.67 | migration z between -2 and 2; enough cells | 0.71 | 6076
GP5 | -0.5 | migration z between -2 and 2; enough cells | 0.76 | 5535
SELENOW | -0.2 | migration z between -2 and 2; enough cells | 0.84 | 3900
C1QL1 | 1.21 | migration z between -2 and 2; enough cells | 1.21 | 6278
CCDC144NL | -0.36 | migration z between -2 and 2; enough cells | 0.8 | 4776
CRYZ | -0.78 | migration z between -2 and 2; enough cells | 0.66 | 6210

Only “migration class with cell-count check” (2 entries from above):
SELENOW = migration z between -2 and 2; enough cells
C1QL1 = migration z between -2 and 2; enough cells

Further entries:
target gene | migration robust z-score | migration class with cell-count check | migration relative to mock | nuclei per well, duplicate mean
LRP1 | -1.12 | migration z between -2 and 2; enough cells | 0.59 | 4215
NDC1 | 0.64 | migration z between -2 and 2; enough cells | 1.05 | 6296
MX1 | 1.5 | migration z between -2 and 2; enough cells | 1.09 | 4783
MTG2 | 0.77 | migration z between -2 and 2; enough cells | 1.08 | 4243
BACH1 | 0.91 | migration z between -2 and 2; enough cells | 0.98 | 4790
KATNB1 | 0.64 | migration z between -2 and 2; enough cells | 1.05 | 6010
PLEKHA7 | 1.01 | migration z between -2 and 2; enough cells | 1.15 | 5172
ELFN2 | -0.62 | migration z between -2 and 2; enough cells | 0.72 | 4902
EDEM1 | 0.52 | migration z between -2 and 2; enough cells | 0.9 | 5831
SLC16A3 | -0.83 | migration z between -2 and 2; enough cells | 0.64 | 5281
CSMD2 | -0.54 | migration z between -2 and 2; enough cells | 0.74 | 5664
MYRFL | 2.11 (active) | migration z above 2; enough cells | 1.42 | 6222
KLK6 | -1.35 | migration z between -2 and 2; enough cells | 0.54 | 3963
